According to the supplement of paper PMC10849652:
The other results are listed elsewhere or left out.

The chains behind the UniProt entries cited, without tags or fusion partners. Where a name states a change or a piece, a line headed by the entry shows the natural chain unless it says otherwise.
UniProt O96011: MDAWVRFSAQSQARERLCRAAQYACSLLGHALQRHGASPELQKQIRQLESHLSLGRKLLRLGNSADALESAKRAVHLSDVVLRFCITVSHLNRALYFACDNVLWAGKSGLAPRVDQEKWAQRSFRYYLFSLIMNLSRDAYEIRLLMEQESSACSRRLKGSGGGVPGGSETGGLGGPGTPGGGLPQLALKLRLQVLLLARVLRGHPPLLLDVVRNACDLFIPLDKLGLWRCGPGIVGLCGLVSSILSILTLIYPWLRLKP
UniProt Q01813: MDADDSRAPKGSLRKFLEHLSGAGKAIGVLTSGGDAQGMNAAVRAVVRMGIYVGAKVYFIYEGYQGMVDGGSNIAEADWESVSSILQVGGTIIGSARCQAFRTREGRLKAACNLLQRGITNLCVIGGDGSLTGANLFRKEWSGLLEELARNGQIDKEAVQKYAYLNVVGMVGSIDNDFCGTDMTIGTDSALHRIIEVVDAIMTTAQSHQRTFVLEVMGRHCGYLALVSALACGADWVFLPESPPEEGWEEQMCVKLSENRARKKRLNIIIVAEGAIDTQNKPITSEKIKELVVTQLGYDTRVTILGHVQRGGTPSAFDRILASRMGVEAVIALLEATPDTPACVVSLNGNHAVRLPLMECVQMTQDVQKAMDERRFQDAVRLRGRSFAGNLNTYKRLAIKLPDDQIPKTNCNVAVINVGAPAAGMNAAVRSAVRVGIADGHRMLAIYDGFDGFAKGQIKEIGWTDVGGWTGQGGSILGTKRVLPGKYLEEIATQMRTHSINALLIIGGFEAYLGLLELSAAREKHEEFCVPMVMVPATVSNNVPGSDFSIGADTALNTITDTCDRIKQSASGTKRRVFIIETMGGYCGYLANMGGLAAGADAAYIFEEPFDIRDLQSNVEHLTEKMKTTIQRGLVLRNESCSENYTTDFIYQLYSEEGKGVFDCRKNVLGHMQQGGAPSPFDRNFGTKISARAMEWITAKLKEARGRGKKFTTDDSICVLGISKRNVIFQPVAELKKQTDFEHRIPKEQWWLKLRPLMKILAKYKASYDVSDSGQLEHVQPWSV
UniProt Q9UGN5: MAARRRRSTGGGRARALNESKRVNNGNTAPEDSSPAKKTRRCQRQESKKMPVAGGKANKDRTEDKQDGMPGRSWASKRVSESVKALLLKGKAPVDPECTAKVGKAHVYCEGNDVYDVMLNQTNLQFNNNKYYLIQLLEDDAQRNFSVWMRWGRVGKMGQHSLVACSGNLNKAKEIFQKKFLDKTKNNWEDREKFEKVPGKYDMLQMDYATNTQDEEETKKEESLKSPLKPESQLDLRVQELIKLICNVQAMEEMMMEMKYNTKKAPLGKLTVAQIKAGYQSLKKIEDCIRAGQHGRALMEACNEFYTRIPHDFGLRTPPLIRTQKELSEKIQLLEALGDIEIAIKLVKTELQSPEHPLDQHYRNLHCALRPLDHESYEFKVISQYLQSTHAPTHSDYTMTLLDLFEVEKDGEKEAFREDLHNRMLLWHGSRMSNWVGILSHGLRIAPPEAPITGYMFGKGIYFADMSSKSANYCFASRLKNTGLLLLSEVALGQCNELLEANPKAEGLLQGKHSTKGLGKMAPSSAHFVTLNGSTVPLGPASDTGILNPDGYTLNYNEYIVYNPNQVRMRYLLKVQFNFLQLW
UniProt Q15121, whole entry, looked up: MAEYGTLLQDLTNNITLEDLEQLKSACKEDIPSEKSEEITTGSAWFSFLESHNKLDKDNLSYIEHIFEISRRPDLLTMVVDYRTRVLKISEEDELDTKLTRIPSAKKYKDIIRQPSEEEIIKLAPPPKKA
UniProt P12004, whole entry, looked up: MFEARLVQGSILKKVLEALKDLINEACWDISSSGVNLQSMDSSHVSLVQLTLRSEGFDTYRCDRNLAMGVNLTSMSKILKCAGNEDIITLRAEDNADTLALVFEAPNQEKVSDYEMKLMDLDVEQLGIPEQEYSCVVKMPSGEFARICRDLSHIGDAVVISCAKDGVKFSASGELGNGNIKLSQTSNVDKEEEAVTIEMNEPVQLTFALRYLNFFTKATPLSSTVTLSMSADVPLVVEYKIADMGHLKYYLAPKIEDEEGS
UniProt P61457: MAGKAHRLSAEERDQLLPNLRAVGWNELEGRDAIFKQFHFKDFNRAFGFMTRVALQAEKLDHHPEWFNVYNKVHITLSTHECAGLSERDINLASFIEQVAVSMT
UniProt P13667: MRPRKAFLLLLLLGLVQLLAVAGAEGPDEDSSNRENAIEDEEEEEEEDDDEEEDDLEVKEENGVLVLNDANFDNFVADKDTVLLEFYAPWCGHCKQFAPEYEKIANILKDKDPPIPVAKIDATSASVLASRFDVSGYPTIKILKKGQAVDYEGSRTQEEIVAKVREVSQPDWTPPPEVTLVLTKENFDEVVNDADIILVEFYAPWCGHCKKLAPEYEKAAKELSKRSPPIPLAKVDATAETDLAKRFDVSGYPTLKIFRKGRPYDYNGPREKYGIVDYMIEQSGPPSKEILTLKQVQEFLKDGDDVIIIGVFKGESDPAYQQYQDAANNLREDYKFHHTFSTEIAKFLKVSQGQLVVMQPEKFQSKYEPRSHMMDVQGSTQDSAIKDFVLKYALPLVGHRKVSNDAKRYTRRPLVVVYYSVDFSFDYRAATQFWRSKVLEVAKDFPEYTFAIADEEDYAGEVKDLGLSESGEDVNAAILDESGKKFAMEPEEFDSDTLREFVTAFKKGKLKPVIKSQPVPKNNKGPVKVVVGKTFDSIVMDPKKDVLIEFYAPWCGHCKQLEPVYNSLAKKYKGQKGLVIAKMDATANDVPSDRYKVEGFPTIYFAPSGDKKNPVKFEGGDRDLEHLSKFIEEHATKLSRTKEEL
UniProt P30101, whole entry, looked up: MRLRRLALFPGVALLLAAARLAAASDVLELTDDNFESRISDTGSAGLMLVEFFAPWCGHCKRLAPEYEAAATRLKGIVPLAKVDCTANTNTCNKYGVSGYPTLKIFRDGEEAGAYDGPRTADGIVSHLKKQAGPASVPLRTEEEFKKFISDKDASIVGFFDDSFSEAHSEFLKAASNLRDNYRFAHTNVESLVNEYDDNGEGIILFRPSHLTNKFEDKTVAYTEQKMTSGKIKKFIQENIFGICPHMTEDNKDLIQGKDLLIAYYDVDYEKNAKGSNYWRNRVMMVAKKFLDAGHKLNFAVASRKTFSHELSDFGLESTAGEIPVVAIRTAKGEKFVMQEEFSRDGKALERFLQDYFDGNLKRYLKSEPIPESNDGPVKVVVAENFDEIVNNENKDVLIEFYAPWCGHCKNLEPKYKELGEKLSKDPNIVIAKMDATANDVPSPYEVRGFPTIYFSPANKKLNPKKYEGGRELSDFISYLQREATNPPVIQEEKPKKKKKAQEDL
UniProt Q5T2R2: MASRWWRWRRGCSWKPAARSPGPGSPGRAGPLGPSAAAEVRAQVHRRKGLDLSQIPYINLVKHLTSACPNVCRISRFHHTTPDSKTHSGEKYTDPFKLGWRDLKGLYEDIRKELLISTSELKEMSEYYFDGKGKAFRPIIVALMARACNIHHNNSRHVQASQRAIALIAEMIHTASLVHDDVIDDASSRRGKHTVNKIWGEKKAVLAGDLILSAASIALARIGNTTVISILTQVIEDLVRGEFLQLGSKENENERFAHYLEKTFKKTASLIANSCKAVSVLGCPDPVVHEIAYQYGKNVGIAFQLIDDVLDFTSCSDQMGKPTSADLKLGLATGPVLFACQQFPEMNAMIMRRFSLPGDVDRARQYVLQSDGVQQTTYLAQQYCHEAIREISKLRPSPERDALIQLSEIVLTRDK
UniProt P08237: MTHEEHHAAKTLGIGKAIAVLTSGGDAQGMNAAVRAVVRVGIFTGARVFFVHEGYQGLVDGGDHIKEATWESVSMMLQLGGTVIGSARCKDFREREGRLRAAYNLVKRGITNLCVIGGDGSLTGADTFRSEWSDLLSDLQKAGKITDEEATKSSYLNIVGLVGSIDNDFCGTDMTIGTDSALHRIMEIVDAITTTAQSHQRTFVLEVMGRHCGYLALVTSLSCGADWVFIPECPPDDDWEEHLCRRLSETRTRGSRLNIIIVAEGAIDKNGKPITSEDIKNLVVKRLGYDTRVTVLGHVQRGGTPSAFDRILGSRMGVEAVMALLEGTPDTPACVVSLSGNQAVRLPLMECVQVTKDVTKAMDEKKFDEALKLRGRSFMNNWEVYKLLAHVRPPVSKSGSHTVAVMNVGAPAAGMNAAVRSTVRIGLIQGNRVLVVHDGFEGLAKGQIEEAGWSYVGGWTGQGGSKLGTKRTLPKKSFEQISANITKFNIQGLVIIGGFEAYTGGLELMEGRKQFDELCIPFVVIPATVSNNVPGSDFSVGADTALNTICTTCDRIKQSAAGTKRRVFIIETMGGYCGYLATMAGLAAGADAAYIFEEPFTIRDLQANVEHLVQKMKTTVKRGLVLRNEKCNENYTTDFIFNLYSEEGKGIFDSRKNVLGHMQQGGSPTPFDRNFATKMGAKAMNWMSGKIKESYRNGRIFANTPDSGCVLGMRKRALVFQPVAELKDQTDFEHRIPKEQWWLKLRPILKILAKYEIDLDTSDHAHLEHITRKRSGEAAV
UniProt P49585: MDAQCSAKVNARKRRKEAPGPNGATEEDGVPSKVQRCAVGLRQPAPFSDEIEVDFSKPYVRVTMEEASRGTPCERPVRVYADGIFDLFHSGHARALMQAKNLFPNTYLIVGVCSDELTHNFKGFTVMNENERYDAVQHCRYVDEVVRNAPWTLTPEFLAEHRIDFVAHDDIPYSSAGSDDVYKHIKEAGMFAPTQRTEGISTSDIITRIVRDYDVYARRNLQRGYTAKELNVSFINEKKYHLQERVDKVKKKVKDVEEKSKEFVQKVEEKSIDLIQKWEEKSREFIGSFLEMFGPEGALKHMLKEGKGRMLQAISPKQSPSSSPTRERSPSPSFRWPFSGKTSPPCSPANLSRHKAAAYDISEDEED
UniProt Q8WUM4: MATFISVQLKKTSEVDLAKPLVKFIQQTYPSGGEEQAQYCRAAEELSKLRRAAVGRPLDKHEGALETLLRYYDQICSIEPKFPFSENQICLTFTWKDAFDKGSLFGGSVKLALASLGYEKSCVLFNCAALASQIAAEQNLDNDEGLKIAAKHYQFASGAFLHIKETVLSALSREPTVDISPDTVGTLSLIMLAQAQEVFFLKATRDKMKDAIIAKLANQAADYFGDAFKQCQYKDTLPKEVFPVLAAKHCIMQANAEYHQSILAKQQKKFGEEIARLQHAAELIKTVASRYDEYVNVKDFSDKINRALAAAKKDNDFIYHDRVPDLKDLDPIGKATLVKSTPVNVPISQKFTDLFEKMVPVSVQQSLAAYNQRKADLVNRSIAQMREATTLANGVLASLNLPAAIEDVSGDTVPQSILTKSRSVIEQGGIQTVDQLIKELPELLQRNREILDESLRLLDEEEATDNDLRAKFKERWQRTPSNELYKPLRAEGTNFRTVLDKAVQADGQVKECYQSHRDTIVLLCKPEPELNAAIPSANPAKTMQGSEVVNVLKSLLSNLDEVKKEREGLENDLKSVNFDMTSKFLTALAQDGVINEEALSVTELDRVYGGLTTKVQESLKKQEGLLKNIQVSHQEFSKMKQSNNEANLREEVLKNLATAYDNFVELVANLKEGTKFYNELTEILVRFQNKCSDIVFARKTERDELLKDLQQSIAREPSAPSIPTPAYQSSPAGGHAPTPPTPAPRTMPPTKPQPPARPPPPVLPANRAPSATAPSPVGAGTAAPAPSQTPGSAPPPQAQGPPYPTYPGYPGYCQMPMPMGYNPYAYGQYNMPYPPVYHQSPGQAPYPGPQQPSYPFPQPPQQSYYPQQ
UniProt Q96HC4: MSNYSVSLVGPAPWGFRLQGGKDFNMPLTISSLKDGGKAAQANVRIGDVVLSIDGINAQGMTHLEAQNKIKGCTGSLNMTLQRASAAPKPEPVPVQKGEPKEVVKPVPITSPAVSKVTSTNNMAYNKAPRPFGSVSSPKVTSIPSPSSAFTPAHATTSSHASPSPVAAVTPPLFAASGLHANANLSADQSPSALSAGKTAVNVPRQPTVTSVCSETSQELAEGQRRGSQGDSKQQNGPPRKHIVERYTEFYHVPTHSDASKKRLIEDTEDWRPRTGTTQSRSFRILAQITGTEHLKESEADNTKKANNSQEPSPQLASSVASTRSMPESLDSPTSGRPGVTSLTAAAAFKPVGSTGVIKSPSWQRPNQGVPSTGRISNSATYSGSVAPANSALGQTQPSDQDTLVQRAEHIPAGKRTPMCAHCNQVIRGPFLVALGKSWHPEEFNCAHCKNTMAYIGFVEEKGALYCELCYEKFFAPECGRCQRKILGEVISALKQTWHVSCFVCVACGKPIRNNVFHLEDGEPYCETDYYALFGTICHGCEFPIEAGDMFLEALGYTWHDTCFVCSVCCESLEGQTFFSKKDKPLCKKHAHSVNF

Experiments:
Assay in all cases: log2 fold change, soluble protein after heating vs DMSO (PISA); higher = thermal stabilisation; K562 lysate, 10 uM; active = over 0.2 and 3.5 SD of the protein, either way, in both replicates (recomputed)
erlotinib = compound: C#Cc1cccc(Nc2ncnc3cc(OCCOC)c(OCCOC)cc23)c1 [erlotinib]
Method in brief: (§1)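 K562 pellets were dounce-homogenised in PBS pH 7.4 containing 1 mM MgCl2, and the crude extract, at 1 mg/mL protein, was exposed to 10 μM compound for 30 min. Aliquots were heated for 3 min across 48°C-58°C, pooled, brought to 0.5% NP-40 at 4°C and spun at 21,000xg for 90 min, with the supernatant taken as soluble protein. TMTpro 16plex LC-MS/MS with equalised channel sums quantified that protein. Values are log-two fold changes in thermal stability relative to solvent controls, taken from duplicates.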

[1] = compound: C/C(=N\NC(=O)C1=CC(=CC=C1)S(=O)(=O)N2CCOCC2)/C3=C(C=CC(=C3)Cl)O
Method in brief: as §1

[2] = compound: C1=CC(=CC=C1C2=NC3=C(N2)C=C(C=C3)C(=O)N)OC4=CC=C(C=C4)Cl
Method in brief: as §1

[3] = compound: C1=CC2=C(C=CC(=C2)/C=C\3/C(=O)NC(=NCC4=CC=CS4)S3)N=C1
Method in brief: as §1

[4] = compound: C1=CC2=NC=CN=C2C=C1/C=C/3\C(=O)NC(=O)S3
Method in brief: as §1

[5] = compound: C1=CC=C(C=C1)C2=NC(=C(N2)C3=CC=NC=C3)C4=CC(=C(C=C4)Cl)O
Method in brief: as §1

[6] = compound: C1=CC=C2C(=C1)C3=NNC4=CC=CC(=C43)C2=O
Method in brief: as §1

[7] = compound: C1CCN(C1)C(=O)NC2=CC=CC(=C2)NC3=NC=C(C(=N3)NCCC4=CN=CN4)Br
Method in brief: as §1

[8] = compound: C1CN(CCC1(CC2=CC=C(C=C2)Cl)N)C3=NC=NC4=C3C=CN4
Method in brief: as §1

IRAK-1-4 Inhibitor I = compound: C1COCCN1CCN2C3=CC=CC=C3N=C2NC(=O)C4=CC(=CC=C4)[N+](=O)[O-] [IRAK-1-4 Inhibitor I]
Method in brief: as §1

ibrutinib = compound: C=CC(=O)N1CCC[C@@H](n2nc(-c3ccc(Oc4ccccc4)cc3)c3c(N)ncnc32)C1 [ibrutinib]
Method in brief: as §1

[9] = compound: CC(=O)c1cnc2ccc(-c3cc(Cl)c(O)c(Cl)c3)nc2c1N[C@H]1CC[C@H](CN(C)C)CC1
Method in brief: as §1

ralimetinib = compound: CC(C)(C)Cn1c(N)nc2ccc(-c3[nH]c(C(C)(C)C)nc3-c3ccc(F)cc3)nc21 [ralimetinib]
Method in brief: as §1

[10] = compound: CC(C)(O)CC(=O)NCCn1ccc2ncnc(Nc3ccc(Oc4cccc(C(F)(F)F)c4)c(Cl)c3)c21
Method in brief: as §1

[11] = compound: CC(C)C1=C2N=C(C=C(N2N=C1)NCC3=CC=CC=C3)NCCCCCCN
Method in brief: as §1

[12] = compound: CC1=C(C(CC(=O)N1)C2=CC=C(C=C2)C(F)(F)F)C(=O)NC3=C(C=C4C(=C3)C=NN4)F
Method in brief: as §1

[13] = compound: CC1=C(C2=C(C=C1)C(=O)C3=CC=CC=C3N2CCCN)C
Method in brief: as §1

[14] = compound: CC1=C(C=C(C=C1)NC(=O)C2=CC(=CC=C2)C(C)(C)C#N)NC3=CC4=C(C=C3)N=CN(C4=O)C
Method in brief: as §1

[15] = compound: CC1=C(C=C(C=C1)NC(=O)C2=CC(=CC=C2)N(C)C)NC(=O)C3=CC=C(C=C3)O
Method in brief: as §1

[16] = compound: CC1=CC=C(C=C1)SC2=C3C=C(SC3=CN=C2)C(=O)N
Method in brief: as §1

Measured: log2 fold change

PEX11B (UniProt O96011)
inactive: erlotinib -0.022 | [1] 0.06 | [2] 0.015 | [3] 0.011 | [4] -0.039 | [5] -0.017 | [6] -0.02 | [7] 0.002 | [8] 0.026 | IRAK-1-4 Inhibitor I 0.038 | ibrutinib -0.008 | [9] 0.005 | ralimetinib 0.007 | [10] -0.02 | [11] 0.04 | [12] -0.079 | [13] 0 | [14] 0.019 | [15] 0.003 | [16] -0.005

PFKP (UniProt Q01813)
inactive: erlotinib -0.01 | [1] -0.006 | [2] 0.019 | [3] -0.001 | [4] -0.01 | [5] 0 | [6] 0.032 | [7] 0.033 | [8] 0.031 | IRAK-1-4 Inhibitor I -0.003 | ibrutinib -0.001 | [9] 0.009 | ralimetinib 0.004 | [10] -0.029 | [11] 0.001 | [12] -0.015 | [13] 0.007 | [14] 0.003 | [15] 0.002 | [16] 0.062

PARP2 (UniProt Q9UGN5)
inactive: erlotinib 0.06 | [1] -0.177 | [2] -0.063 | [3] 0.039 | [4] -0.037 | [5] 0.165 | [6] 0.047 | [7] -0.096 | [8] -0.145 | IRAK-1-4 Inhibitor I -0.114 | ibrutinib 0.033 | [9] 0.082 | ralimetinib -0.01 | [10] -0.029 | [11] 0.069 | [12] -0.027 | [13] 0.108 | [14] -0.028 | [15] -0.003 | [16] -0.012

2 neighbouring records already listed:
PEX11B (UniProt O96011)
inactive: erlotinib -0.022 | [1] 0.06 | [2] 0.015 | [3] 0.011 | [4] -0.039 | [5] -0.017 | [6] -0.02 | [7] 0.002 | [8] 0.026 | IRAK-1-4 Inhibitor I 0.038 | ibrutinib -0.008 | [9] 0.005 | ralimetinib 0.007 | [10] -0.02 | [11] 0.04 | [12] -0.079 | [13] 0 | [14] 0.019 | [15] 0.003 | [16] -0.005

PFKP (UniProt Q01813)
inactive: erlotinib -0.01 | [1] -0.006 | [2] 0.019 | [3] -0.001 | [4] -0.01 | [5] 0 | [6] 0.032 | [7] 0.033 | [8] 0.031 | IRAK-1-4 Inhibitor I -0.003 | ibrutinib -0.001 | [9] 0.009 | ralimetinib 0.004 | [10] -0.029 | [11] 0.001 | [12] -0.015 | [13] 0.007 | [14] 0.003 | [15] 0.002 | [16] 0.062

Next part

PEA15 isoform 2 (UniProt Q15121)
inactive: erlotinib -0.014 | [1] -0.028 | [2] 0.034 | [3] 0.032 | [4] -0.085 | [5] -0.011 | [6] -0.039 | [7] 0.001 | [8] 0.025 | IRAK-1-4 Inhibitor I 0.007 | ibrutinib 0.051 | [9] -0.047 | ralimetinib 0.005 | [10] -0.083 | [11] 0.023 | [12] -0.059 | [13] -0.007 | [14] 0.056 | [15] 0 | [16] -0.011

PCNA (UniProt P12004)
inactive: erlotinib -0.041 | [1] 0.009 | [2] -0.016 | [3] 0.006 | [4] 0.017 | [5] 0.009 | [6] 0.026 | [7] 0.021 | [8] -0.011 | IRAK-1-4 Inhibitor I -0.026 | ibrutinib -0.017 | [9] 0.005 | ralimetinib -0.016 | [10] 0.023 | [11] -0.032 | [12] -0.043 | [13] -0.001 | [14] -0.019 | [15] -0.015 | [16] 0.019

PCBD1 (UniProt P61457)
inactive: erlotinib -0.028 | [1] -0.064 | [2] -0.015 | [3] -0.075 | [4] -0.013 | [5] -0.064 | [6] 0.004 | [7] -0.02 | [8] 0.01 | IRAK-1-4 Inhibitor I -0.005 | ibrutinib 0.103 | [9] 0.058 | ralimetinib -0.029 | [10] -0.007 | [11] -0.019 | [12] 0.018 | [13] -0.05 | [14] 0.075 | [15] 0.016 | [16] -0.017

PECAM1 (UniProt P16284)
inactive: erlotinib 0.049 | [1] 0.066 | [2] 0.016 | [3] 0.083 | [4] -0.068 | [5] 0.016 | [6] 0.064 | [7] 0.003 | [8] 0.067 | IRAK-1-4 Inhibitor I 0.045 | ibrutinib 0.024 | [9] 0 | ralimetinib 0.003 | [10] -0.008 | [11] -0.025 | [12] -0.02 | [13] 0.032 | [14] 0.055 | [15] -0.035 | [16] -0.025

PDIA4 (UniProt P13667)
inactive: erlotinib -0.011 | [1] 0.062 | [2] 0.005 | [3] -0.017 | [4] -0.008 | [5] 0.006 | [6] 0 | [7] 0.04 | [8] 0.007 | IRAK-1-4 Inhibitor I -0.001 | ibrutinib 0.006 | [9] -0.008 | ralimetinib -0.016 | [10] 0.011 | [11] 0.001 | [12] -0.01 | [13] 0.021 | [14] -0.038 | [15] 0.011 | [16] 0.007

PDIA3 (UniProt P30101)
inactive: erlotinib -0.023 | [1] 0.013 | [2] -0.011 | [3] -0.031 | [4] 0.003 | [5] -0.014 | [6] 0.007 | [7] 0.024 | [8] -0.009 | IRAK-1-4 Inhibitor I -0.009 | ibrutinib -0.006 | [9] 0.01 | ralimetinib -0.017 | [10] 0.06 | [11] -0.006 | [12] -0.003 | [13] 0.025 | [14] -0.024 | [15] -0.019 | [16] 0.007

PDSS1 (UniProt Q5T2R2)
inactive: erlotinib 0.154 | [1] -0.096 | [2] 0.02 | [3] 0.011 | [4] -0.038 | [5] -0.041 | [6] -0.172 | [7] -0.041 | [8] -0.079 | IRAK-1-4 Inhibitor I 0.064 | ibrutinib 0.065 | [9] -0.07 | ralimetinib 0.012 | [10] 0.038 | [11] 0.009 | [12] -0.029 | [13] 0.068 | [14] -0.061 | [15] 0.038 | [16] -0.068

PFKM isoform 3 (UniProt P08237)
inactive: erlotinib 0.005 | [1] -0.004 | [2] 0.052 | [3] 0.011 | [4] 0.02 | [5] 0.004 | [6] -0.018 | [7] 0.011 | [8] 0.024 | IRAK-1-4 Inhibitor I -0.001 | ibrutinib 0.016 | [9] -0.001 | ralimetinib -0.009 | [10] -0.01 | [11] -0.006 | [12] -0.003 | [13] 0.012 | [14] 0 | [15] -0.009 | [16] 0.08

PDPR (UniProt Q8NCN5)
inactive: erlotinib -0.013 | [1] 0.025 | [2] 0.006 | [3] -0.01 | [4] 0.007 | [5] -0.013 | [6] -0.066 | [7] -0.003 | [8] 0.034 | IRAK-1-4 Inhibitor I -0.022 | ibrutinib 0.024 | [9] -0.011 | ralimetinib -0.049 | [10] -0.018 | [11] 0.093 | [12] -0.004 | [13] 0.009 | [14] 0.003 | [15] 0.003 | [16] -0.006

PCYT1A (UniProt P49585)
inactive: erlotinib -0.021 | [1] -0.01 | [2] -0.003 | [3] -0.009 | [4] -0.006 | [5] -0.003 | [6] 0.003 | [7] 0.012 | [8] -0.012 | IRAK-1-4 Inhibitor I 0.009 | ibrutinib 0.052 | [9] 0.003 | ralimetinib 0.01 | [10] -0.023 | [11] 0.023 | [12] 0.023 | [13] 0.024 | [14] -0.076 | [15] 0.042 | [16] -0.046

PDCD6IP isoform 2 (UniProt Q8WUM4)
inactive: erlotinib 0.027 | [1] 0.046 | [2] 0.009 | [3] 0.01 | [4] -0.02 | [5] 0.007 | [6] -0.007 | [7] 0.002 | [8] 0.007 | IRAK-1-4 Inhibitor I -0.002 | ibrutinib -0.035 | [9] 0.009 | ralimetinib 0.003 | [10] 0.025 | [11] 0.013 | [12] -0.006 | [13] 0.046 | [14] -0.013 | [15] 0.029 | [16] 0.016

PDLIM5 (UniProt Q96HC4)
inactive: erlotinib -0.011 | [1] -0.11 | [2] 0.038 | [3] 0.006 | [4] -0.016 | [5] 0.001 | [6] 0.008 | [7] 0.008 | [8] -0.009 | IRAK-1-4 Inhibitor I -0.017 | ibrutinib 0.033 | [9] -0.003 | ralimetinib 0.009 | [10] -0.027 | [11] -0.006 | [12] -0.008 | [13] 0.002 | [14] 0.022 | [15] -0.019 | [16] -0.027

PASK (UniProt Q96RG2)
inactive: erlotinib -0.003 | [1] 0.017 | [2] 0 | [3] 0.045 | [4] 0.033 | [5] 0.021 | [6] 0.021 | [7] -0.033 | [8] 0.103 | IRAK-1-4 Inhibitor I 0.029 | ibrutinib 0.007 | [9] 0.154 | ralimetinib 0.004 | [10] -0.008 | [11] -0.002 | [12] 0.012 | [13] 0.035 | [14] -0.014 | [15] 0.013 | [16] 0.043
